This note sets out measurements from patent US8932627B2, “Liposomal compositions of glucocorticoid and glucocorticoid derivatives” (Yissum Research Development Company of the Hebrew …, priority 2004, dated 2015).

The conditions of this data set: 26° C.; MPS 0.785-30 mM. As to the method:
Surface tension was measured using μtrouge S (Kibron Inc., Helsinki Finland). A solution containing GC derivative (300 μL) was placed in the well after calibration and zeroing of the sensor using pure water and air. The measurement was performed at 26° C.

As to `C[C@@H]1C[C@H]2[C@@H]3CCC4=CC(=O)C=C[C@]4(C)[C@@]3(F)[C@@H](O)C[C@]2(C)[C@@]1(O)C(=O)COP(=O)(O)O` [Dexamethasone phosphate], the “surface activity (surface tension)” value is “not surface active at least up to concentration of 50 mM”.
